According to PMC3834177, “Investigation into CYP3A4-mediated drug–drug interactions on midostaurin in healthy volunteers” (Cancer Chemotherapy and Pharmacology, 2013):
pIC50: −log10 of the molar value.

Tests used:
[1] = Midostaurin PK when administered with rifampicin; conditions: human, in vivo
Method: These endogenous molecules served as exploratory biomarkers for CYP3A4 activity in vivo [21, 22].
A point estimate and the corresponding 90 % CI for the treatment effect (test vs reference) were calculated. These were anti-logged to obtain the GMR and respective 90 % CI. […] The median difference was estimated with the Hodges–Lehmann estimator and its respective exact two-sided 90 % CI. All formal comparative statistical analyses were performed using SAS software.
The concentration of ketoconazole in plasma was assessed using a validated LC–MS/MS assay with an LLOQ of 50.0 ng/mL (WuXi Pharmatech Co, Ltd, China). The concentration of rifampicin in plasma was measured using a validated LC–MS/MS assay with an LLOQ of 5.0 ng/mL (SGS, Cephac Europe, SAS). Plasma concentrations of midazolam and its metabolite 1′-hydroxymidazolam, which is generated by CYP3A4 and CYP3A5 in humans, were measured using a validated LC–MS/MS assay with an LLOQ of ≈0.100 ng/mL (SGS, Cephac Europe, SAS). The plasma concentration of 4β-hydroxycholesterol was measured using a validated LC–MS/MS assay with an LLOQ of 3.0 ng/mL (SGS, Cephac Europe, SAS). The concentrations of 6β-hydroxycortisol and cortisol in urine were determined using validated LC–MS/MS assays with an LLOQ of 10.0 ng/mL for 6β-hydroxycortisol and 1.0 ng/mL for cortisol. […]

mutant FLT3 = system: mutant FLT3; design: method as in PMID 16857987; conditions: in vitro; read-out: half-maximal inhibitory concentration (IC50), mutant FLT3; cited from earlier work
CYP3A4/5 = system: CYP3A4/5; design: method as in earlier work; conditions: in vitro; read-out: IC50, CYP3A4/5 activity (midazolam 1′-hydroxylation); cited from earlier work

## CN(C(=O)c1ccccc1)[C@@H]1C[C@H]2O[C@@](C)([C@@H]1O)n1c3ccccc3c3c4c(c5c6ccccc6n2c5c31)C(=O)NC4 [CGP62221]
[1]
  median t max prolonged in midostaurin + placebo arm compared with midostaurin + rifampicin arm: twofold

## CO[C@@H]1[C@H](N(C)C(=O)c2ccccc2)C[C@H]2O[C@]1(C)n1c3ccccc3c3c4c(c5c6ccccc6n2c5c31)C(=O)NC4 [Midostaurin]
Mutant FLT3
  pIC50: 7.44 to 8.00
CYP3A4/5
  pIC50: 5.82
